Test results: paper PMC5596601
No constants are given. Whether binding was seen depends on the method and setting. In cells and extracts the contact can be indirect. Some results given as binding are weak or reduced against the parent protein; the word gives no strength.

By UniProt entry, the sequences of proteins in these tests, tags left out. Residues count along the entry.
UniProt O00220, residues 24-468: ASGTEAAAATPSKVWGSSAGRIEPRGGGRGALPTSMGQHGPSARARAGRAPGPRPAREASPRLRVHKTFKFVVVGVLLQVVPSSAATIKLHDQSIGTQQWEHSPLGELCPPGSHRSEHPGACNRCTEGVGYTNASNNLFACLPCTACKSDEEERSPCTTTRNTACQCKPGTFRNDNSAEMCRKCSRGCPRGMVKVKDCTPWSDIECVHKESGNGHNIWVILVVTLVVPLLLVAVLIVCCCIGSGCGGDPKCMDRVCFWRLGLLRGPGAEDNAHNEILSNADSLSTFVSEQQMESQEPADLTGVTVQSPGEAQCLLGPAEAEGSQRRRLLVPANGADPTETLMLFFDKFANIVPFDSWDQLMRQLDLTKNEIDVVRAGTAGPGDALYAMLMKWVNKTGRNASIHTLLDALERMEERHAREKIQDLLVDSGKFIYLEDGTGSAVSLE
UniProt O14763, residues 56-440: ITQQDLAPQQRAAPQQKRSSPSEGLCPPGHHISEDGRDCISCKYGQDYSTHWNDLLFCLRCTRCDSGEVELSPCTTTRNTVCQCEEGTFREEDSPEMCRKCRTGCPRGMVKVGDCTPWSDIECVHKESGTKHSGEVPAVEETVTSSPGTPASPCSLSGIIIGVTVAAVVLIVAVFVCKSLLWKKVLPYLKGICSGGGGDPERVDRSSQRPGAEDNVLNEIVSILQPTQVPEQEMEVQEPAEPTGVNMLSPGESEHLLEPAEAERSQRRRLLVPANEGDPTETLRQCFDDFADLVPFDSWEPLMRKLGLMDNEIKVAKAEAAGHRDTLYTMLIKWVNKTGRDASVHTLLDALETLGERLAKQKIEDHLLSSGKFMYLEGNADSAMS

What was measured:
[1] = molecular target: Death Receptor 4 (human (endogenous in BJELR)) (UniProt O00220); assay: co-IP; whole-cell lysates (1% Triton X-100, 150 mM NaCl, pH 7.4) of BJELR cells, naive or treated with 1 ug/ml TRAIL for 30 min; antibodies to DR5, DR4, DcR2 or caspase-8 on protein G magnetic beads, overnight at 4 °C; Western blot
[2] = molecular target: Death Receptor 5 (human (endogenous in BJELR)) (UniProt O14763); assay: as above
[3] = molecular target: RIPK1 (receptor-interacting serine/threonine-protein kinase 1) (human (endogenous in BJELR)) (UniProt Q13546); assay: co-IP; purified plasma membrane fraction of BJELR cells (also control and DcR2 knockout cells), naive or treated with 1 ug/ml TRAIL for 30 min; antibodies to DR5, RIPK1, TRAF2 or FADD; Western blot
[4] = molecular target: T1, TRAF2 (TNF receptor-associated factor 2) (human (endogenous in BJELR)) (UniProt Q12933); assay: as above
T1 sequence: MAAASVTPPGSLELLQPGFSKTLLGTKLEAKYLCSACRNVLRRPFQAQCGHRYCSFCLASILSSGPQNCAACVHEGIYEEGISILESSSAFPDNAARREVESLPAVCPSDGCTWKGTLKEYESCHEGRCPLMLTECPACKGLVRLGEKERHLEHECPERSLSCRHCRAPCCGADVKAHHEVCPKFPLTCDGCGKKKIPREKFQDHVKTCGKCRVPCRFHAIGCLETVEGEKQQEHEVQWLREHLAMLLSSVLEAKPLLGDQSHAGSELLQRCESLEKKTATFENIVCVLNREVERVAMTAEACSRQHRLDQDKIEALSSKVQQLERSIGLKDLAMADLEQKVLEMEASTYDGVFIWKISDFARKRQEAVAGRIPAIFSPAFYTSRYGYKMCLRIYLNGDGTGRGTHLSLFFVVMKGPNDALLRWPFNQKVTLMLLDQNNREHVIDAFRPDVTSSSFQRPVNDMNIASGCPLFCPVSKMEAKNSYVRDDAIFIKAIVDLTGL

[5] = molecular target: Death Receptor 5 (human (endogenous in BJELR)) (UniProt O14763); assay: as above
[6] = molecular target: Death Receptor 4 (human (endogenous in BJELR)) (UniProt O00220); assay: co-IP; DR5 knockout BJELR cells, naive or treated with TRAIL for 30 min; DR4 IP from plasma membrane fractions (Figure 7c), RIPK1 IP and TRAF2 IP (Figure 7d, fraction not named in the legend); Western blot
[7] = molecular target: T2, TRAF2 (TNF receptor-associated factor 2) (human (endogenous in BJELR)), Q12933; assay: co-IP; purified plasma membrane fraction of BJELR cells (also control and DcR2 knockout cells), naive or treated with 1 ug/ml TRAIL for 30 min; antibodies to DR5, RIPK1, TRAF2 or FADD; Western blot; conditions: remark: other sources report otherwise
T2 chain: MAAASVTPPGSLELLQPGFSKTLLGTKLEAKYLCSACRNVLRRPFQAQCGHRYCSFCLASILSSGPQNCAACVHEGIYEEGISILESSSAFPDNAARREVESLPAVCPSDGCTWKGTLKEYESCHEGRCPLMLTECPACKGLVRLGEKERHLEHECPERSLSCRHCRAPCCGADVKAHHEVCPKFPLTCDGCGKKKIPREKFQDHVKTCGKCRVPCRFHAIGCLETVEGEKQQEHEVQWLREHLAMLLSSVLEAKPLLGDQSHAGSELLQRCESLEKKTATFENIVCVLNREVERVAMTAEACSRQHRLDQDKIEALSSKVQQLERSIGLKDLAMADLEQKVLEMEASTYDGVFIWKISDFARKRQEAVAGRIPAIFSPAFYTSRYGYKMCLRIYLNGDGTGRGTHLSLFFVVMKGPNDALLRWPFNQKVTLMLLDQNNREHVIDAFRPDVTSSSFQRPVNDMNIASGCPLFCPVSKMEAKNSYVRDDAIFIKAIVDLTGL

[8] = molecular target: Death Receptor 5 (human (endogenous in BJELR)), O14763; assay: as above; conditions: remark: other sources report otherwise
[9] = molecular target: Death Receptor 5 (human (endogenous in BJELR)), O14763; assay: co-IP; whole-cell lysates (1% Triton X-100, 150 mM NaCl, pH 7.4) of BJELR cells, naive or treated with 1 ug/ml TRAIL for 30 min; antibodies to DR5, DR4, DcR2 or caspase-8 on protein G magnetic beads, overnight at 4 °C; Western blot; conditions: remark: other sources report otherwise
[10] = molecular target: T3, RIPK1 (receptor-interacting serine/threonine-protein kinase 1) (human (endogenous in BJELR)), Q13546; assay: co-IP; purified plasma membrane fraction of BJELR cells (also control and DcR2 knockout cells), naive or treated with 1 ug/ml TRAIL for 30 min; antibodies to DR5, RIPK1, TRAF2 or FADD; Western blot; conditions: remark: other sources report otherwise
T3 chain: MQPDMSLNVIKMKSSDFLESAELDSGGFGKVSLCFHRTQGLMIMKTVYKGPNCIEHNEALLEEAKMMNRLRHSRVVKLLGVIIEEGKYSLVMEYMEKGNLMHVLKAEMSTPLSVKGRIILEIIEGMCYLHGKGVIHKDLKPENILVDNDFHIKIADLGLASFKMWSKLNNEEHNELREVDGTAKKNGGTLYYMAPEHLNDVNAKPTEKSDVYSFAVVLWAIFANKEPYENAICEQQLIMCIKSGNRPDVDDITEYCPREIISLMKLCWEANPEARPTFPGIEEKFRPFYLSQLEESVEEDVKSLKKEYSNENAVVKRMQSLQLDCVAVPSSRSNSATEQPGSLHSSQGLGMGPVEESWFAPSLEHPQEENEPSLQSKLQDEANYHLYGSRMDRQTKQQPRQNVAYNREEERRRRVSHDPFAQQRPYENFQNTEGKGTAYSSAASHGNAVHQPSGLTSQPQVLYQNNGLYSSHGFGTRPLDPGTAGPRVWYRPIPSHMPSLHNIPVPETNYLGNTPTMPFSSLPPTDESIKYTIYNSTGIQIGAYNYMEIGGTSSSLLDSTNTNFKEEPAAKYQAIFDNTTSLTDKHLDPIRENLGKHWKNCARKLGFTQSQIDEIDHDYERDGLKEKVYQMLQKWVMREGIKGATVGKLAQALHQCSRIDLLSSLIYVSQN

[11] = molecular target: T4, caspase-8 (human (endogenous in BJELR)), Q14790; assay: co-IP; whole-cell lysates (1% Triton X-100, 150 mM NaCl, pH 7.4) of BJELR cells, naive or treated with 1 ug/ml TRAIL for 30 min; antibodies to DR5, DR4, DcR2 or caspase-8 on protein G magnetic beads, overnight at 4 °C; Western blot; conditions: remark: other sources report otherwise
T4 chain: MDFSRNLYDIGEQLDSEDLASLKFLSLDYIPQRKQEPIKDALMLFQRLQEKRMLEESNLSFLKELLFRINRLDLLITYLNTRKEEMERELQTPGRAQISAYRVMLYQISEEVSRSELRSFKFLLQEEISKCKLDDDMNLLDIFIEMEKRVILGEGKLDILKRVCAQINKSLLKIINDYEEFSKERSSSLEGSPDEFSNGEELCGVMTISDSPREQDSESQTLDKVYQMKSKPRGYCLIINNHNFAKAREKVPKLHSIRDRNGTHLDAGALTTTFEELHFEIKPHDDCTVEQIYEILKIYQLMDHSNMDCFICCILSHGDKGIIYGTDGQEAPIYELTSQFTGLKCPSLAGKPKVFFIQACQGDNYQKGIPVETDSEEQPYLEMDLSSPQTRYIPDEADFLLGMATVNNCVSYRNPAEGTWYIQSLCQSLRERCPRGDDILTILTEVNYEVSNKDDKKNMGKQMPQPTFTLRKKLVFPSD

B1: Decoy Receptor 2 (receptor, UniProt Q9UBN6 56-386)
chain: ATIPRQDEVPQQTVAPQQQRRSLKEEECPAGSHRSEYTGACNPCTEGVDYTIASNNLPSCLLCTVCKSGQTNKSSCTTTRDTVCQCEKGSFQDKNSPEMCRTCRTGCPRGMVKVSNCTPRSDIKCKNESAASSTGKTPAAEETVTTILGMLASPYHYLIIIVVLVIILAVVVVGFSCRKKFISYLKGICSGGGGGPERVHRVLFRRRSCPSRVPGAEDNARNETLSNRYLQPTQVSEQEIQGQELAELTGVTVELPEEPQRLLEQAEAEGCQRRRLLVPVNDADSADISTLLDASATLEEGHAKETIQDQLVGSEKLFYEEDEAGSATSCL
Question: For B1, which binding [1] is on record?
Answer: binds

Question: What about the binding [2] of the same binder?
Answer: binds

Question: And the binding [3]?
Answer: binds

Question: And the binding [4]?
Answer: binds

Question: What about the binding [5] of the same binder?
Answer: binds

Question: What about the binding [6] of the same binder?
Answer: binds weakly

B2: FADD (Fas-associated protein with death domain), Q13158 1-208 (protein)
chain: MDPFLVLLHSVSSSLSSSELTELKFLCLGRVGKRKLERVQSGLDLFSMLLEQNDLEPGHTELLRELLASLRRHDLLRRVDDFEAGAAAGAAPGEEDLCAAFNVICDNVGKDWRRLARQLKVSDTKIDSIEDRYPRNLTERVRESLRIWKNTEKENATVAHLVGALRSCQMNLVADLVQEVQQARDLQNRSGAMSPMSWNSDASTSEAS
Question: With B2 as the binder, how does the binding [7] read?
Answer: binds

B3: caspase-8, Q14790 1-479 (enzyme)
chain: MDFSRNLYDIGEQLDSEDLASLKFLSLDYIPQRKQEPIKDALMLFQRLQEKRMLEESNLSFLKELLFRINRLDLLITYLNTRKEEMERELQTPGRAQISAYRVMLYQISEEVSRSELRSFKFLLQEEISKCKLDDDMNLLDIFIEMEKRVILGEGKLDILKRVCAQINKSLLKIINDYEEFSKERSSSLEGSPDEFSNGEELCGVMTISDSPREQDSESQTLDKVYQMKSKPRGYCLIINNHNFAKAREKVPKLHSIRDRNGTHLDAGALTTTFEELHFEIKPHDDCTVEQIYEILKIYQLMDHSNMDCFICCILSHGDKGIIYGTDGQEAPIYELTSQFTGLKCPSLAGKPKVFFIQACQGDNYQKGIPVETDSEEQPYLEMDLSSPQTRYIPDEADFLLGMATVNNCVSYRNPAEGTWYIQSLCQSLRERCPRGDDILTILTEVNYEVSNKDDKKNMGKQMPQPTFTLRKKLVFPSD
Question: B3 was tested. Which binding [7] did it give?
Answer: binds

Question: And the binding [8]?
Answer: binds

Question: And the binding [9]?
Answer: binds

B4: TRAF2 (TNF receptor-associated factor 2), Q12933 1-501 (protein)
chain: MAAASVTPPGSLELLQPGFSKTLLGTKLEAKYLCSACRNVLRRPFQAQCGHRYCSFCLASILSSGPQNCAACVHEGIYEEGISILESSSAFPDNAARREVESLPAVCPSDGCTWKGTLKEYESCHEGRCPLMLTECPACKGLVRLGEKERHLEHECPERSLSCRHCRAPCCGADVKAHHEVCPKFPLTCDGCGKKKIPREKFQDHVKTCGKCRVPCRFHAIGCLETVEGEKQQEHEVQWLREHLAMLLSSVLEAKPLLGDQSHAGSELLQRCESLEKKTATFENIVCVLNREVERVAMTAEACSRQHRLDQDKIEALSSKVQQLERSIGLKDLAMADLEQKVLEMEASTYDGVFIWKISDFARKRQEAVAGRIPAIFSPAFYTSRYGYKMCLRIYLNGDGTGRGTHLSLFFVVMKGPNDALLRWPFNQKVTLMLLDQNNREHVIDAFRPDVTSSSFQRPVNDMNIASGCPLFCPVSKMEAKNSYVRDDAIFIKAIVDLTGL
Question: With B4 as the binder, how does the binding [10] read?
Answer: binds

Question: What about the binding [11] of the same binder?
Answer: binds
